Article PMC6802120, “Concatenation of 14-3-3 with partner phosphoproteins as a tool to study their interaction” (Scientific Reports, 2019)
Results are given in words; binding and its absence hold for the method and conditions named.

By UniProt entry, the sequences of proteins in these tests, tags left out. Where a name states a change or a piece, a line headed by the entry shows the natural chain unless it says otherwise.
UniProt P31947: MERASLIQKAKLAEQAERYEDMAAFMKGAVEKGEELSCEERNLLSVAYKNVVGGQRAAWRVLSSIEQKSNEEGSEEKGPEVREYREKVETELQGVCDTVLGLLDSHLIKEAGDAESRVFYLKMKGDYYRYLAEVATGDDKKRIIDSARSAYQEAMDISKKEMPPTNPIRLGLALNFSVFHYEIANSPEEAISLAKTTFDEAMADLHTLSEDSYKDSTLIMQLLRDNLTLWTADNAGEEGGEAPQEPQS

Biological target: 14-3-3σ∆C (C-terminally truncated human 14-3-3σ, residues 1-231) (human) (UniProt P31947)
Assay: SEC; fluorescence-assisted size-exclusion spectrochromatography, Superdex 200 Increase 5/150, SEC buffer; detection at 230 nm absorbance and Trp fluorescence (excitation 298 nm, emission 360 nm); proteins alone and mixed; both purified

B1: HSPB6 ACD (α-crystallin domain, residues 72-149) (domain or fragment, human, UniProt O14558 72-149, looked up)
chain: GHFSVLLDVKHFSPEEIAVKVVGEHVEVHARHEERPDEHGFVAREFHRRYRLPPGVDPAAVTSALSPEGVLSIQAAPA
notes: human small heat shock protein HSPB6, α-crystallin domain, residues 72-149; also called ACD dimer; isolated ACD
binding: no binding (tested: very high micromolar concentrations)
